Experimental data as given in the supplement of paper PMC12823440, “Inhibitors supercharge kinase turnover through native proteolytic circuits” (Nature, 2025).
The list shows a part of the results. Hit calls seldom repeat between salt and free forms of one compound.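 In K562 cells expressing nanoluciferase-fused kinases, luminescence was recorded at 4 h intervals between 2 and 18 h, normalized as percent of control with DMSO at 100% and a positive control at 0%. A significant (2 sigma) signal drop marks a time point as decreased. The authors' rule for a hit is not shown and takes in more than the number of time points.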

By UniProt entry, the sequences of proteins in these tests, tags left out. Where a name states a change or a piece, a line headed by the entry shows the natural chain unless it says otherwise.
UniProt P49137, whole entry, looked up: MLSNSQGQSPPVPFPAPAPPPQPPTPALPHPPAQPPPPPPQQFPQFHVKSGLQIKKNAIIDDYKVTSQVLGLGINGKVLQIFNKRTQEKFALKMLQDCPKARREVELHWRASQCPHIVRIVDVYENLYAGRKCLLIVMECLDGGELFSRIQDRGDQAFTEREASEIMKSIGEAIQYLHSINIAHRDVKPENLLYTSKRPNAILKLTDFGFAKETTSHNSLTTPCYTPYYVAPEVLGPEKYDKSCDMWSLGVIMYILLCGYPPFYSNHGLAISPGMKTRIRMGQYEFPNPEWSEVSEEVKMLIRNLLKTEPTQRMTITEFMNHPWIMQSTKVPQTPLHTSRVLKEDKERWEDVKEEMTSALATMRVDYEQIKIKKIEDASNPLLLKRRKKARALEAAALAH
UniProt P43403: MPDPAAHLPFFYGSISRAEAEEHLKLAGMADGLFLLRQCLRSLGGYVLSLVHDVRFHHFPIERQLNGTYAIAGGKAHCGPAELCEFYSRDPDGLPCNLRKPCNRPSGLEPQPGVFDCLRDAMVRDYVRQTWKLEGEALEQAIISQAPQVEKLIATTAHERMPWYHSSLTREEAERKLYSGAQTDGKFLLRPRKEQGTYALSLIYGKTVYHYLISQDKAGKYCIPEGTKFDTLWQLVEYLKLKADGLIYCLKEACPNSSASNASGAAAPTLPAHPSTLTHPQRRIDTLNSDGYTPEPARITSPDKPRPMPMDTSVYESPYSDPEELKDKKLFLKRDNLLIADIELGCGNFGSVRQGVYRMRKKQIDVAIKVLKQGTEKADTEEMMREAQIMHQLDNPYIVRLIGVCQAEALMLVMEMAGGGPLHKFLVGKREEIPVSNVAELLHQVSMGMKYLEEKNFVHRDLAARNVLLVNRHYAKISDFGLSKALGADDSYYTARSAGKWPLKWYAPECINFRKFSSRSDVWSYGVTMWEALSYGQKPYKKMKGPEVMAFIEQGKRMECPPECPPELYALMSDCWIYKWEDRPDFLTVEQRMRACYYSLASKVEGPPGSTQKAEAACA
UniProt P53350, whole entry: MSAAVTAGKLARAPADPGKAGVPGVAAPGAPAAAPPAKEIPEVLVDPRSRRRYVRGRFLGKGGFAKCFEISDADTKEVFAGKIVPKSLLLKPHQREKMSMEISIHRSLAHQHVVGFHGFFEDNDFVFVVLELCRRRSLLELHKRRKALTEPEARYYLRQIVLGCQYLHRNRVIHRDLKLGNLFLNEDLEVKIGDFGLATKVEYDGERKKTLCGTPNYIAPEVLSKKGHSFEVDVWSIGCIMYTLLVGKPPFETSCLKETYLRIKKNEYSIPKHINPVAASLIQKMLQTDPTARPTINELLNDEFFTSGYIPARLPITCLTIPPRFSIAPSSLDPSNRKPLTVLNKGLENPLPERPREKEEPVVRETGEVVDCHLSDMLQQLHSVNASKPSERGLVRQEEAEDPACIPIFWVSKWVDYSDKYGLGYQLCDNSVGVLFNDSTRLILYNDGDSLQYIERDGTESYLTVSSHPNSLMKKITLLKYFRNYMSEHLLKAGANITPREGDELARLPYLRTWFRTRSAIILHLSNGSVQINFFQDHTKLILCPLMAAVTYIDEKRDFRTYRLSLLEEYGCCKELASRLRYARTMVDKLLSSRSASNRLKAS
UniProt Q16620, whole entry, looked up: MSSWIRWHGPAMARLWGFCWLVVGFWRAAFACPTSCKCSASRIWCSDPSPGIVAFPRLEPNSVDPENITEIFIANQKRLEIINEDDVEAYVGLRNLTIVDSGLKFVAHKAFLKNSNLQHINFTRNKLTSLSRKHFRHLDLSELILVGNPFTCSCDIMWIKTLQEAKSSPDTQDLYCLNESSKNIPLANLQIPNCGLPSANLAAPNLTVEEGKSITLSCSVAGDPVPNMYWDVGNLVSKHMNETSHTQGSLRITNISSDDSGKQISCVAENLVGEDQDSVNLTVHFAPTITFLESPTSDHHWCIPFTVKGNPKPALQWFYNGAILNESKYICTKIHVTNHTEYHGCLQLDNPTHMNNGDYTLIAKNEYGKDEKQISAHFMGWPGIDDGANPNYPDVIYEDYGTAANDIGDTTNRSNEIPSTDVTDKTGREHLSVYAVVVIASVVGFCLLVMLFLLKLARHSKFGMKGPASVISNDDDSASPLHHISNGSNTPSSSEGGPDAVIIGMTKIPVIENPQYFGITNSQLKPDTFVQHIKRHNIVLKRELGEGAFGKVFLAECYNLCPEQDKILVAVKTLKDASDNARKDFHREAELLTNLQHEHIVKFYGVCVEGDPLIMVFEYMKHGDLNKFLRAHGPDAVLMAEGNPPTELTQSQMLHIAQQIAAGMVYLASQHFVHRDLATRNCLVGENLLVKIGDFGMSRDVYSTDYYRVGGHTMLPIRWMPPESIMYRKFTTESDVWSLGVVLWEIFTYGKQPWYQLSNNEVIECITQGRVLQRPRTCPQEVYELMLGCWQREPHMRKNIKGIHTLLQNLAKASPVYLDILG
UniProt O75460: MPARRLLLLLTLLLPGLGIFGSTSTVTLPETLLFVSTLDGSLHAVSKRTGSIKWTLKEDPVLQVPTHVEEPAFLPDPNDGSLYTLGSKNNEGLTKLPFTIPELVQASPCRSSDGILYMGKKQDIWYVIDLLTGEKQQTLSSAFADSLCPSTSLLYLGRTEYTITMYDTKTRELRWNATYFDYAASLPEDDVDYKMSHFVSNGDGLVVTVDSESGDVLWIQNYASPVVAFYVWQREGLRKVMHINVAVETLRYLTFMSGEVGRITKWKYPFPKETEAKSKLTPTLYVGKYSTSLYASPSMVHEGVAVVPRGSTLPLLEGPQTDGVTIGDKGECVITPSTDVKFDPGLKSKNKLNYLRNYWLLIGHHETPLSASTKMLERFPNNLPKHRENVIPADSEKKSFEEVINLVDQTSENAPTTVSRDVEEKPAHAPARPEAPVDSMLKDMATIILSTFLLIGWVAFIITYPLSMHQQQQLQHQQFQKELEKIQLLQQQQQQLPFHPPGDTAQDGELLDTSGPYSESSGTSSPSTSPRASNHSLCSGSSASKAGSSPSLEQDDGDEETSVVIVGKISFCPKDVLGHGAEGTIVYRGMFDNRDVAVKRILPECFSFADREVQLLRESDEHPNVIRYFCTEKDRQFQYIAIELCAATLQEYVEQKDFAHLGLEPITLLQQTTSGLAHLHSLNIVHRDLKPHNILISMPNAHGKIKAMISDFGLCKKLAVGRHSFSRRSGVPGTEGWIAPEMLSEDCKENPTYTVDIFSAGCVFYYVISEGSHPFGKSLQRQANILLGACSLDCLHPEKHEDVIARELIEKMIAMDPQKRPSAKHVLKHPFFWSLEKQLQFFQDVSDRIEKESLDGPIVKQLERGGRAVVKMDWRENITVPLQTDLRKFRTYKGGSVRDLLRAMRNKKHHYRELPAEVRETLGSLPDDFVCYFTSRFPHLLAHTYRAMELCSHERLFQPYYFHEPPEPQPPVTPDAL
UniProt Q00535, whole entry, looked up: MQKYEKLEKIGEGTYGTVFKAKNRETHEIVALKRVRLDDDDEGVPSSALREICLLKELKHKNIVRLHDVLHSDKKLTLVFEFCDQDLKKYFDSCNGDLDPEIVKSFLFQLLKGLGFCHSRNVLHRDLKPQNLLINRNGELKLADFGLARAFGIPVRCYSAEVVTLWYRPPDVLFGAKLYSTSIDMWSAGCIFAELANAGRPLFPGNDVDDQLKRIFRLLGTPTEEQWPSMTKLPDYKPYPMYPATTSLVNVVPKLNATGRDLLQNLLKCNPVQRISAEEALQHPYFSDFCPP
UniProt P22607, whole entry, looked up: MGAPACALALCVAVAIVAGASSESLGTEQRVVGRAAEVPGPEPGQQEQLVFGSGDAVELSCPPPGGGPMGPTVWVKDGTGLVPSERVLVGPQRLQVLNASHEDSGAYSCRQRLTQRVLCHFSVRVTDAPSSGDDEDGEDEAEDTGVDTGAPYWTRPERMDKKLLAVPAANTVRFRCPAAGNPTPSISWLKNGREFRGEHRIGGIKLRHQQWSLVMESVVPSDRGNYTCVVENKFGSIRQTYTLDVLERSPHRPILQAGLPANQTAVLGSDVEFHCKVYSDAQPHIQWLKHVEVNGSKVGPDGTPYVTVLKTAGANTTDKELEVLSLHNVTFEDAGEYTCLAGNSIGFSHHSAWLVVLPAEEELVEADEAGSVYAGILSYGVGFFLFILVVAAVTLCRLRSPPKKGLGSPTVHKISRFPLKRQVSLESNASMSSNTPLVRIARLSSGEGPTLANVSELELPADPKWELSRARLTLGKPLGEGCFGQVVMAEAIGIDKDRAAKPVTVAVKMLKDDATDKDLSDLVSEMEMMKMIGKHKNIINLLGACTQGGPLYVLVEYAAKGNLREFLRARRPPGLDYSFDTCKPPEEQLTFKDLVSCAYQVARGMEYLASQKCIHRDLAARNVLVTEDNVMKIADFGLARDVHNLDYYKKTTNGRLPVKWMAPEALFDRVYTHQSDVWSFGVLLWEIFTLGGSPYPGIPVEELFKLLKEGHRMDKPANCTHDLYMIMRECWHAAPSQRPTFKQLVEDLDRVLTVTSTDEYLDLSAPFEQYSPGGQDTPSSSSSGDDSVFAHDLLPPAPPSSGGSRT
UniProt P06239: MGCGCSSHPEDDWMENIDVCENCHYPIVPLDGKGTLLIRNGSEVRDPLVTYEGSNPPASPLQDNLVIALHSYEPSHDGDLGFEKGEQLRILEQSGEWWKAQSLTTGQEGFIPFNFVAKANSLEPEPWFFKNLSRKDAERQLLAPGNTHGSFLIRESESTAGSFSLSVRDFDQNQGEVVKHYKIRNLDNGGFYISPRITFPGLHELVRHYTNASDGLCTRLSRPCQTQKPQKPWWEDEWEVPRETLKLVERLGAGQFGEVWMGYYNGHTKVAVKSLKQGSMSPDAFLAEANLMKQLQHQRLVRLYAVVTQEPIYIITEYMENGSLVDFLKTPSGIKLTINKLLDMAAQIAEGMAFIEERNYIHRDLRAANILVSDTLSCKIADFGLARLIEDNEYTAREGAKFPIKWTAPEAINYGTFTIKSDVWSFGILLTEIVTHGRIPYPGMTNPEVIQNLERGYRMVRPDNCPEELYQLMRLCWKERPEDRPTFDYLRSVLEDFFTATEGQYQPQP
UniProt P07948: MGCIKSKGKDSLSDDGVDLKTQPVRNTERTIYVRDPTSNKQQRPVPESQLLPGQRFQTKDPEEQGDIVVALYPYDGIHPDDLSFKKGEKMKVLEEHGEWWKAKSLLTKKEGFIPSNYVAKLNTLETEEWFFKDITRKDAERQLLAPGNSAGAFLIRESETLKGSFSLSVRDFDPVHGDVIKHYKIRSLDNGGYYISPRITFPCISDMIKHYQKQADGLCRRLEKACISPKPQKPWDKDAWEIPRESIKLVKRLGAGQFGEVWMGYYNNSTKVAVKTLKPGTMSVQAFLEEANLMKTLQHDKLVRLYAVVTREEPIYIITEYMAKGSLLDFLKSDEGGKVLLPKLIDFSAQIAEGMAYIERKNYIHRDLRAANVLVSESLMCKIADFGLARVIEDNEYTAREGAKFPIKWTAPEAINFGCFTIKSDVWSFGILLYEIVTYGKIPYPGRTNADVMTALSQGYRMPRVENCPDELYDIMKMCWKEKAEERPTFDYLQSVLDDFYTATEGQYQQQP
UniProt P41240: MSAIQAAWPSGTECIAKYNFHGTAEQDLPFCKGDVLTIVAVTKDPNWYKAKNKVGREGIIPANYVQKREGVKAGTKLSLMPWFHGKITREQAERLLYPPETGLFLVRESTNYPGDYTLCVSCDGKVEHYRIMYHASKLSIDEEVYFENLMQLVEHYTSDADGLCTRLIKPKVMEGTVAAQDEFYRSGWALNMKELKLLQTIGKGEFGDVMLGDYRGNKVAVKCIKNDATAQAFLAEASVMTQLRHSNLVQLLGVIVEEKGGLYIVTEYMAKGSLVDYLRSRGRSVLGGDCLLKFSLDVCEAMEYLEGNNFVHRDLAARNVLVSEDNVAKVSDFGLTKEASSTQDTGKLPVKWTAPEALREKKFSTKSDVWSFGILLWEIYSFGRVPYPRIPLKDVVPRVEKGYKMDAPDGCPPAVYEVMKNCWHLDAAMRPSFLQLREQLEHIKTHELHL

Assays:
Test in all cases: number of time points (of 5) at which kinase-Nluc abundance scored as decreased, DMSO-normalised (count); higher = more persistent destabilization
[1] = compound: C#Cc1cccc(Nc2ncnc3cc(OCCOC)c(OCCO)cc23)c1 [Desmethyl Erlotinib (hydrochloride)]; details: 10 µM; K562; 2-18 h
[2] = compound: C#Cc1cccc(Nc2ncnc3cc(OCCOC)c(OCCO)cc23)c1 [Desmethyl Erlotinib]; details: 10 µM; K562; 2-18 h
[3] = compound: C#Cc1cccc(Nc2ncnc3cc(OCCOC)c(OCCOC)cc23)c1 [Erlotinib (Hydrochloride)]; details: 10 µM; K562; 2-18 h
[4] = compound: C#Cc1cccc(Nc2ncnc3cc(OCCOC)c(OCCOC)cc23)c1 [Erlotinib]; details: 10 µM; K562; 2-18 h
[5] = compound: C#Cc1cccc(Nc2ncnc3cc4c(cc23)OCCOCCOCCO4)c1 [Icotinib (Hydrochloride)]; details: 10 µM; K562; 2-18 h
[6] = compound: C#Cc1cccc(Nc2ncnc3cc4c(cc23)OCCOCCOCCO4)c1 [Icotinib]; details: 10 µM; K562; 2-18 h
[7] = compound: C/C=C1\C(=O)C[C@H]2[C@@H]3CCC4=CC(=O)CC[C@]4(C)[C@H]3CC[C@]12C [(Z)-Guggulsterone]; details: 10 µM; K562; 2-18 h
[8] = compound: C/C=C1\C(=O)C[C@H]2[C@@H]3CCC4=CC(=O)CC[C@]4(C)[C@H]3CC[C@]12C [Guggulsterone]; details: 10 µM; K562; 2-18 h
[9] = compound: C=CC(=O)N1CCN(c2ncnc3c(F)c(-c4c(O)cccc4F)c(Cl)cc23)CC1; details: K562, 2-18 h
[10] = compound: C=CC(=O)Nc1cc(Nc2ncc(C(=O)OC(C)C)c(-c3cn(C)c4ccccc34)n2)c(OC)cc1N(C)CCN(C)C [Mobocertinib (succinate)]; details: 10 µM; K562; 2-18 h
[11] = compound: C=CC(=O)Nc1cc(Nc2ncc(C(=O)OC(C)C)c(-c3cn(C)c4ccccc34)n2)c(OC)cc1N(C)CCN(C)C [Mobocertinib]; details: 10 µM; K562; 2-18 h
[12] = compound: C=CC(=O)Nc1cc(Nc2nccc(-c3cn(C)c4ccccc34)n2)c(OC)cc1N(C)CCN(C)C [Osimertinib (dimesylate)]; details: 2.5 µM; K562; 2-18 h
[13] = compound: C=CC(=O)Nc1cc(Nc2nccc(-c3cn(C)c4ccccc34)n2)c(OC)cc1N(C)CCN(C)C [Osimertinib mesylate]; details: 2.5 µM; K562; 2-18 h
[14] = compound: C=CC(=O)Nc1cc(Nc2nccc(-c3cn(C)c4ccccc34)n2)c(OC)cc1N(C)CCN(C)C [Osimertinib]; details: 2.5 µM; K562; 2-18 h
[15] = compound: C=CC(=O)Nc1cc(Nc2nccc(-c3cn(C4CC4)c4ccccc34)n2)c(OC)cc1N(C)CCN(C)C [Almonertinib (hydrochloride)]; details: 2.5 µM; K562; 2-18 h
[16] = compound: C=CC(=O)Nc1cc(Nc2nccc(-c3cn(C4CC4)c4ccccc34)n2)c(OC)cc1N(C)CCN(C)C [Almonertinib]; details: 2.5 µM; K562; 2-18 h
[17] = compound: C=CC(=O)Nc1cc2c(Nc3ccc(F)c(Cl)c3)ncnc2cc1C#CC(C)(C)N1CCN(C)CC1 [AV-412 (free base)]; details: 2.5 µM; K562; 2-18 h
[18] = compound: C=CC(=O)Nc1cc2c(Nc3ccc(F)c(Cl)c3)ncnc2cc1C#CC(C)(C)N1CCN(C)CC1; details: 2.5 µM; K562; 2-18 h
[19] = compound: CC(=O)N[C@H](Cc1ccc(O)cc1)C(=O)N[C@H](CCCN=C(N)N)C(=O)N[C@H](Cc1ccccc1)C(N)=O; details: 10 µM; K562; 2-18 h
[20] = compound: CC(=O)Nc1cccc(-n2c(=O)n(C3CC3)c(=O)c3c(Nc4ccc(I)cc4F)n(C)c(=O)c(C)c32)c1 [Trametinib (DMSO solvate)]; details: 10 µM; K562; 2-18 h

Measured: number of time points

MAPKAPK2 (UniProt P49137)
0: [1] | [2] | [3] | [4] | [5] | [6] | [7] | [8] | [9]; 2.5 µM | [9]; 10 µM | [10] | [11] | [12] | [13] | [14] | [15] | [16] | [17] | [18] | [19] | [20]

BRAF (UniProt P15056)
0: [1] | [2] | [3] | [4] | [5] | [6] | [7] | [8] | [9]; 2.5 µM | [9]; 10 µM | [10] | [11] | [12] | [13] | [14] | [15] | [16] | [17] | [18] | [19] | [20]

MAP2K1 (UniProt Q02750)
0: [1] | [2] | [3] | [4] | [5] | [6] | [7] | [8] | [9]; 2.5 µM | [9]; 10 µM | [10] | [11] | [12] | [13] | [14] | [15] | [16] | [17] | [18] | [19] | [20]

ZAP70 (UniProt P43403)
0: [1] | [2] | [3] | [4] | [5] | [6] | [7] | [8] | [9]; 2.5 µM | [9]; 10 µM | [10] | [11] | [12] | [13] | [14] | [15] | [16] | [17] | [18] | [19] | [20]

EGFR_T790M (UniProt P00533)
0: [1] | [2] | [5] | [6] | [7] | [8] | [9]; 2.5 µM | [9]; 10 µM | [10] | [11] | [15] | [16] | [17] | [18] | [19] | [20]

EGFR (UniProt P00533)
0: [2] | [5] | [6] | [7] | [8] | [9]; 2.5 µM | [9]; 10 µM | [10] | [11] | [15] | [16] | [17] | [18] | [19] | [20]
3: [1]

EGFR_G719S_T790M (UniProt P00533)
0: [2] | [5] | [6] | [7] | [8] | [9]; 2.5 µM | [9]; 10 µM | [10] | [11] | [15] | [16] | [17] | [18] | [19] | [20]
1: [1]

PLK1 (UniProt P53350)
0: [1] | [2] | [3] | [4] | [5] | [6] | [9]; 2.5 µM | [9]; 10 µM | [10] | [11] | [12] | [13] | [14] | [15] | [16] | [17] | [18] | [19] | [20]

NTRK2 (UniProt Q16620)
0: [1] | [2] | [3] | [4] | [6] | [7] | [8] | [9]; 10 µM | [10] | [11] | [12] | [13] | [14] | [15] | [16] | [17] | [18] | [19] | [20]
1: [9]; 2.5 µM

EGFR_G719S (UniProt P00533)
2: [1] | [20]
3: [17]
0: [2] | [5] | [6] | [7] | [8] | [9]; 2.5 µM | [9]; 10 µM | [10] | [11] | [15] | [16] | [18] | [19]

ERN1 (UniProt O75460)
0: [1] | [2] | [3] | [4] | [5] | [6] | [7] | [8] | [9]; 2.5 µM | [9]; 10 µM | [10] | [11] | [12] | [13] | [14] | [15] | [16] | [17] | [18] | [19] | [20]

CDK5 (UniProt Q00535)
0: [1] | [2] | [3] | [4] | [5] | [6] | [7] | [8] | [9]; 2.5 µM | [9]; 10 µM | [10] | [11] | [12] | [13] | [14] | [15] | [16] | [17] | [18] | [19] | [20]

FGFR3 (UniProt P22607)
0: [1] | [2] | [3] | [4] | [5] | [6] | [9]; 2.5 µM | [9]; 10 µM | [10] | [11] | [12] | [13] | [14] | [15] | [16] | [17] | [18] | [19] | [20]

LCK (UniProt P06239)
0: [1] | [2] | [5] | [6] | [7] | [8] | [9]; 2.5 µM | [9]; 10 µM | [10] | [11] | [12] | [13] | [14] | [15] | [16] | [17] | [18] | [19] | [20]

LYN (UniProt P07948)
0: [1] | [2] | [3] | [4] | [5] | [6] | [7] | [8] | [9]; 2.5 µM | [9]; 10 µM | [10] | [11] | [12] | [13] | [14] | [15] | [16] | [17] | [18] | [19] | [20]

Quoted from the entries so far (3 entries):
ERN1 (UniProt O75460)
0: [1] | [2] | [3] | [4] | [5] | [6] | [7] | [8] | [9]; 2.5 µM | [9]; 10 µM | [10] | [11] | [12] | [13] | [14] | [15] | [16] | [17] | [18] | [19] | [20]

CDK5 (UniProt Q00535)
0: [1] | [2] | [3] | [4] | [5] | [6] | [7] | [8] | [9]; 2.5 µM | [9]; 10 µM | [10] | [11] | [12] | [13] | [14] | [15] | [16] | [17] | [18] | [19] | [20]

FGFR3 (UniProt P22607)
0: [1] | [2] | [3] | [4] | [5] | [6] | [9]; 2.5 µM | [9]; 10 µM | [10] | [11] | [12] | [13] | [14] | [15] | [16] | [17] | [18] | [19] | [20]

Continuation:

CSK (UniProt P41240)
0: [1] | [2] | [3] | [4] | [5] | [6] | [7] | [8] | [9]; 2.5 µM | [9]; 10 µM | [10] | [11] | [12] | [13] | [14] | [15] | [16] | [17] | [18] | [19] | [20]
